# Data from article PMC11387620.
# Amino acid sequences for entries named in this document (tags omitted).
# UniProt P26196: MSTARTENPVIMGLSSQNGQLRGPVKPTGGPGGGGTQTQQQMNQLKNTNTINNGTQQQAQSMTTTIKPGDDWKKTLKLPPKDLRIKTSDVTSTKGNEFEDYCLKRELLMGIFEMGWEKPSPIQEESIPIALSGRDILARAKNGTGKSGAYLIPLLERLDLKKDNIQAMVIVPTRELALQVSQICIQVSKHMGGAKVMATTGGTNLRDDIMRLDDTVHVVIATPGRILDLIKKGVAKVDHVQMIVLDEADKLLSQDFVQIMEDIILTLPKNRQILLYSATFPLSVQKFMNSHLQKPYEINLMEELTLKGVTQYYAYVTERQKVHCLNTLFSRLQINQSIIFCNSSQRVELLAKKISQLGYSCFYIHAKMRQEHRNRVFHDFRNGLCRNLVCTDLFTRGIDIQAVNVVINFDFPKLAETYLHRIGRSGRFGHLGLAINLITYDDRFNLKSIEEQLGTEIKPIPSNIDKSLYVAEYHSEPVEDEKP
# UniProt Q96F86: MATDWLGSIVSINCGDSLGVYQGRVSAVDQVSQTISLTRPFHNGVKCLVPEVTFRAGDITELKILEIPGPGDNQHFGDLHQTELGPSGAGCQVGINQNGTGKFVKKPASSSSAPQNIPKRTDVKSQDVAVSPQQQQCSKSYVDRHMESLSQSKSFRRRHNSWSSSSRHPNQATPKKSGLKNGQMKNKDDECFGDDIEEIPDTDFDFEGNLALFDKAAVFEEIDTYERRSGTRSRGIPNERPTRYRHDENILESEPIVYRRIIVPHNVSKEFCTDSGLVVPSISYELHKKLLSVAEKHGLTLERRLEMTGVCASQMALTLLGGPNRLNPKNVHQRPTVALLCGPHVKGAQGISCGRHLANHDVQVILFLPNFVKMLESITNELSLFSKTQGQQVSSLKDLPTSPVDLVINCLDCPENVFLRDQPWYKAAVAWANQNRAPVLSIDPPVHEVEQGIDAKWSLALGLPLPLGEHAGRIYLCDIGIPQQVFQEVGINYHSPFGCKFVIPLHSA
# No constants are given. Whether binding was seen depends on the method and setting. Binding seen in cells or lysates may run through a third protein. A yes stands for co-enrichment or nearness to the bait. Other partners may have been found.
# T1: DCP1a (human (endogenous in HCT116)) (UniProt Q9NPI6)
# T1 sequence: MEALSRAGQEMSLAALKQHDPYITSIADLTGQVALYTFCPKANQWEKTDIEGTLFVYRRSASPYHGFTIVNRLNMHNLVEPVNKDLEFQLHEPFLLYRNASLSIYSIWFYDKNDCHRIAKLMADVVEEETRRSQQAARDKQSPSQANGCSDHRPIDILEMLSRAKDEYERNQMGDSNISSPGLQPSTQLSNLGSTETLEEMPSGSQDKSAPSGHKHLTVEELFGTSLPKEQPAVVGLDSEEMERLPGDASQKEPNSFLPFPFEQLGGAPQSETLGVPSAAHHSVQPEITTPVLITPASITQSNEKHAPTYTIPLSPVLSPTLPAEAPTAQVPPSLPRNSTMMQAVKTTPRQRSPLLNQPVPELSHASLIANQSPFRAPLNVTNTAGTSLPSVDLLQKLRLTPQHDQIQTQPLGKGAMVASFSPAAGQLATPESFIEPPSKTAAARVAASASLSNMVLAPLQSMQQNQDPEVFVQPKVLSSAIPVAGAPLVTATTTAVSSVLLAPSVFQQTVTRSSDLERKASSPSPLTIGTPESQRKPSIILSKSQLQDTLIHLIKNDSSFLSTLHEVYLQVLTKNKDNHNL
# T2: DCP1b (human (endogenous in HCT116)) (UniProt Q8IZD4)
# T2 sequence: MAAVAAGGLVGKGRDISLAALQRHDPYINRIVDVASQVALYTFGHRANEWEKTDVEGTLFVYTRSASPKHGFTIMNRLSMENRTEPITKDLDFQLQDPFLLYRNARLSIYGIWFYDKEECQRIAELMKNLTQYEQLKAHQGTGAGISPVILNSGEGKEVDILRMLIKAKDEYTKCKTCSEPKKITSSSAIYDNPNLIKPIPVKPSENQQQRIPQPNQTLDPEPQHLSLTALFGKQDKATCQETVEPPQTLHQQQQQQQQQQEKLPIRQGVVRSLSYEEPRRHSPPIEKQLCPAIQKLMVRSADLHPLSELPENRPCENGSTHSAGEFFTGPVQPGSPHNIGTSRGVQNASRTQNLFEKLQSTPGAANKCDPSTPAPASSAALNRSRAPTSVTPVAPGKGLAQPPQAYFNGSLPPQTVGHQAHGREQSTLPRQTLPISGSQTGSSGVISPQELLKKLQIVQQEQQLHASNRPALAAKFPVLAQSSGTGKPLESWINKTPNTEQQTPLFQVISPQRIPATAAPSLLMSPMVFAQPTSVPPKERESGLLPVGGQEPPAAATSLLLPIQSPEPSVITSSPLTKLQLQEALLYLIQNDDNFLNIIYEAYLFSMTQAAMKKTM
# B1: DCP1b (protein, UniProt Q8IZD4 1-617)
# chain: T2 sequence
# B2: TERF2IP (protein, UniProt Q9NYB0 1-399)
# chain: MAEAMDLGKDPNGPTHSSTLFVRDDGSSMSFYVRPSPAKRRLSTLILHGGGTVCRVQEPGAVLLAQPGEALAEASGDFISTQYILDCVERNERLELEAYRLGPASAADTGSEAKPGALAEGAAEPEPQRHAGRIAFTDADDVAILTYVKENARSPSSVTGNALWKAMEKSSLTQHSWQSLKDRYLKHLRGQEHKYLLGDAPVSPSSQKLKRKAEEDPEAADSGEPQNKRTPDLPEEEYVKEEIQENEEAVKKMLVEATREFEEVVVDESPPDFEIHITMCDDDPPTPEEDSETQPDEEEEEEEEKVSQPEVGAAIKIIRQLMEKFNLDLSTVTQAFLKNSGELEATSAFLASGQRADGYPIWSRQDDIDLQKDDEDTREALVKKFGAQNVARRIEFRKK
# Assays:
# [1] = molecular target: T1, DCP1a (human (endogenous in HCT116)); experiment: affinity purification with mass spectrometry; endogenous DCP1a immunoprecipitated from HCT116 lysates (270 ug protein; control and DCP1b KO cells), IgG control, LC/MS/MS, two replicas
# [2] = molecular target: T2, DCP1b (human (endogenous in HCT116)); experiment: affinity purification with mass spectrometry; endogenous DCP1b immunoprecipitated from HCT116 lysates (270 ug protein; control and DCP1a KO polyclonal pool), IgG control, LC/MS/MS, two replicas
# [3] = molecular target: DDX6 (human (endogenous in HCT116)) (UniProt P26196); experiment: affinity purification with mass spectrometry; endogenous DDX6 immunoprecipitated from HCT116 lysates (control, DCP1a KO, DCP1b KO), IgG control, LC/MS/MS, three replicas
Molecule,binding [1],binding [2],binding [3]
EDC3 (from UniProt Q96F86 1-508),binds,binds,binds
SLIRP (human (endogenous in HCT116)),,binds,
B1,binds,,binds
B2,binds,binds,
